Data taken from the supplement of paper PMC8728848.
Some of the results follow.

What was measured:
Assay in all cases: glycan array binding signal (z-score within array); higher = stronger binding
Conditions in all cases: glycan notation: IUPAC condensed, linker removed
Fuc(a1-3)GlcNAc = biological target: Fuc(a1-3)GlcNAc
In short: (§1)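 Glycan array data came from 3228 arrays in the Consortium for Functional Glycomics database, and only arrays with an available protein sequence were kept. Glycan names were put into IUPAC-condensed notation, and columns mapping to the same glycan were averaged. The binding signal is a within-array Z-score, averaged across arrays of one protein sequence run at different concentrations or buffers and across linkers. A negative Z-score can be read as non-binding.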

[1] = biological target: Fuc(a1-3)[Gal(b1-4)]Glc6S
In short: as §1

[2] = biological target: Fuc(a1-3)[Gal(b1-4)]GlcNAc
In short: as §1

[3] = biological target: Fuc(a1-3)[Gal(b1-4)]GlcNAc(b1-2)Man
In short: as §1

[4] = biological target: Fuc(a1-3)[Gal(b1-4)]GlcNAc(b1-2)Man(a1-3)[Fuc(a1-3)[Gal(b1-4)]GlcNAc(b1-2)Man(a1-6)]Man(b1-4)GlcNAc(b1-4)GlcNAc
In short: as §1

[5] = biological target: Fuc(a1-3)[Gal(b1-4)]GlcNAc(b1-2)Man(a1-3)[Fuc(a1-3)[Gal(b1-4)]GlcNAc(b1-2)Man(a1-6)]Man(b1-4)GlcNAc(b1-4)[Fuc(a1-6)]GlcNAc
In short: as §1

[6] = biological target: Fuc(a1-3)[Gal(b1-4)]GlcNAc(b1-3)Gal(b1-3)[Fuc(a1-4)]GlcNAc
In short: as §1

[7] = biological target: Fuc(a1-3)[Gal(b1-4)]GlcNAc(b1-3)Gal(b1-4)[Fuc(a1-3)]GlcNAc
In short: as §1

[8] = biological target: Fuc(a1-3)[Gal(b1-4)]GlcNAc(b1-3)Gal(b1-4)[Fuc(a1-3)]GlcNAc(b1-3)Gal(b1-4)[Fuc(a1-3)]GlcNAc
In short: as §1

[9] = biological target: Fuc(a1-3)[Gal(b1-4)]GlcNAc(b1-3)GalNAc
In short: as §1

[10] = biological target: Fuc(a1-3)[Gal(b1-4)]GlcNAc(b1-6)GalNAc
In short: as §1

[11] = biological target: Fuc(a1-3)[Gal(b1-4)]GlcNAc(b1-6)[Gal(b1-3)GlcNAc(b1-3)]Gal(b1-4)Glc
In short: as §1

[12] = biological target: Fuc(a1-3)[Gal(b1-4)]GlcNAc6S
In short: as §1

[13] = biological target: Fuc(a1-3)[Gal3S(b1-4)]Glc
In short: as §1

[14] = biological target: Fuc(a1-3)[Gal3S(b1-4)]GlcNAc
In short: as §1

[15] = biological target: Fuc(a1-3)[Gal3S(b1-4)]GlcNAc6S
In short: as §1

[16] = biological target: Fuc(a1-3)[GalNAc(b1-4)]GlcNAc
In short: as §1

[17] = biological target: Fuc(a1-3)[GalNAc(b1-4)]GlcNAc6S
In short: as §1

Fuc(a1-4)GlcNAc = biological target: Fuc(a1-4)GlcNAc
In short: as §1

Fuc(b1-3)GlcNAc = biological target: Fuc(b1-3)GlcNAc
In short: as §1

Gal(a1-2)Gal = biological target: Gal(a1-2)Gal
In short: as §1

Gal(a1-3)Gal = biological target: Gal(a1-3)Gal
In short: as §1

Gal(a1-3)Gal(b1-3)GlcNAc = biological target: Gal(a1-3)Gal(b1-3)GlcNAc
In short: as §1

[18] = biological target: Gal(a1-3)Gal(b1-3)GlcNAc(b1-2)Man
In short: as §1

[19] = biological target: Gal(a1-3)Gal(b1-3)GlcNAc(b1-2)Man(a1-3)[Gal(a1-3)Gal(b1-3)GlcNAc(b1-2)Man(a1-6)]Man(b1-4)GlcNAc(b1-4)GlcNAc
In short: as §1

[20] = biological target: Gal(a1-3)Gal(b1-3)GlcNAc(b1-3)GalNAc
In short: as §1

[21] = biological target: Gal(a1-3)Gal(b1-3)GlcNAc(b1-6)GalNAc
In short: as §1

[22] = biological target: Gal(a1-3)Gal(b1-3)[Fuc(a1-4)]GlcNAc(b1-2)Man(a1-3)[Gal(a1-3)Gal(b1-3)[Fuc(a1-4)]GlcNAc(b1-2)Man(a1-6)]Man(b1-4)GlcNAc(b1-4)GlcNAc
In short: as §1

Gal(a1-3)Gal(b1-4)Glc = biological target: Gal(a1-3)Gal(b1-4)Glc
In short: as §1

Gal(a1-3)Gal(b1-4)GlcNAc = biological target: Gal(a1-3)Gal(b1-4)GlcNAc
In short: as §1

B1: GS7807I-bvu-563-22-563 (Bacteroides vulgatus) (protein)
chain: IFSSCTDDFEKLNTSNIQVDPADLPFAAQCTEPMTYCYPPQQNMFQFWTNLTIDLYGGYFMTPNGNFTNGDMGENRGHSGGMYENYYLHIFNNTRRIIAQCDASGERGLSGVMRIVQAYGTLMTTDAYGPIPYSSILSGENEVYFEFDSQKDLYKAMLEDLSTAITDISAMGADEIAKLKSFDCWCNGDKDLWVKIANTMKLRMALRLSKRETEAGNAGMNLKAIATEAAQNTLATVNKDILIDKSLENEMWLMFNWGDCGFNANLVTIMSGTKDPRQPLYMTLNTGDIKNEAGTTTVAANSQYLGIRFASGLPAKPNSWGNFSGWIQGNNGSSYSMPLPIMKAAEAYFLLAEAKLRWDIGSESVKNLYENGIRVSMTNELAYRGAYAGIKEYPEGAVDAYINGTSTQIDYTDPIKAELSTPAVNKLSVKWDESASNEEKLERIITQKWLALFPLSTEGWAEQRRTGYPRFFPAFVNESNGAVNTEEGVRRVIYSSQAYDANAKGVEGGIKLLDEENSSKFGISGDKGGTHLWWDNADKGNF
- glycan array binding signal (z-score) (Fuc(a1-3)GlcNAc): -1.2
- glycan array binding signal (z-score) [1]: -0.366
- glycan array binding signal (z-score) [2]: -0.447
- glycan array binding signal (z-score) [3]: -0.489
- glycan array binding signal (z-score) [4]: -1.02
- glycan array binding signal (z-score) [5]: 2.56
- glycan array binding signal (z-score) [6]: 0.715
- glycan array binding signal (z-score) [7]: -0.381
- glycan array binding signal (z-score) [8]: -0.568
- glycan array binding signal (z-score) [9]: 0.072
- glycan array binding signal (z-score) [10]: 1.2
- glycan array binding signal (z-score) [11]: 0.031
- glycan array binding signal (z-score) [12]: -1
- glycan array binding signal (z-score) [13]: -0.824
- glycan array binding signal (z-score) [14]: 0.384
- glycan array binding signal (z-score) [15]: 0.755
- glycan array binding signal (z-score) [16]: 0.354
- glycan array binding signal (z-score) [17]: -0.615
- glycan array binding signal (z-score) (Fuc(a1-4)GlcNAc): -0.512
- glycan array binding signal (z-score) (Fuc(b1-3)GlcNAc): -0.592
- glycan array binding signal (z-score) (Gal(a1-2)Gal): -0.874
- glycan array binding signal (z-score) (Gal(a1-3)Gal): -0.437
- glycan array binding signal (z-score) (Gal(a1-3)Gal(b1-3)GlcNAc): -0.313
- glycan array binding signal (z-score) [18]: -1.28
- glycan array binding signal (z-score) [19]: 1.4
- glycan array binding signal (z-score) [20]: -0.571
- glycan array binding signal (z-score) [21]: -0.342
- glycan array binding signal (z-score) [22]: -0.29
- glycan array binding signal (z-score) (Gal(a1-3)Gal(b1-4)Glc): -0.58
- glycan array binding signal (z-score) (Gal(a1-3)Gal(b1-4)GlcNAc): -0.092
